Data as given in PubChem BioAssay AID686938 (Drosophila RNAi Screening Center, 2013).
The deposit covers about 23,000 reagents; shown is an unselected part of those that have a named target and a result. In the full data, 75 (0.33%) are marked active. 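Raw plate signals without normalisation; calls rest on plate z-scores that were not deposited; ratio present for only 364 wells.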 Reagents against one gene are numbered here. Names joined by + are all predicted targets of the reagent. The record does not give: the dose of the treatment.

Screen: 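Fly genes required for calcium entry once internal stores are emptied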 (primary screen)
Cells: Drosophila S2R+ cells
Knock-down reagent: long dsRNA against Drosophila genes, about 0.25 µg dsRNA per well, roughly 10,000 cells
Duration: 5 days of knock-down before the calcium assay
Treatment: thapsigargin (SERCA pump blocker) to empty calcium stores; entry signal taken 4 min after adding it
Measurement: 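Per-well fluo-4 fluorescence in two replicates, unnormalised, measured in resting cells and 4 min after store depletion by the SERCA blocker thapsigargin; ratio of the two present in few wells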
Direction: calcium entry signal: higher = stronger calcium signal after store depletion; entry to resting ratio: higher = more calcium entry relative to resting level; resting calcium signal: higher = higher resting calcium signal
Rule for the call: 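Called when the plate z-score of the entry-to-rest ratio, mean of duplicates, falls below −3; wells with low overall dye signal (Fmax z below −2) or more than five off-targets excluded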
Calls: active = strongly reduced calcium entry; inactive = no strong reduction

| target | dsRNA no. | calcium entry signal, replicate 1 (fluorescence units) | calcium entry signal, replicate 2 (fluorescence units) | entry to resting ratio | resting calcium signal, replicate 1 (fluorescence units) | resting calcium signal, replicate 2 (fluorescence units) | Call |
| --- | --- | --- | --- | --- | --- | --- | --- |
| CG12659 | 1 | 3.58e7 | 3.48e7 | – | 1.89e7 | 1.79e7 | inactive |
| Irp-1A (Iron regulatory protein 1A) | 1 | 5.09e7 | 5.43e7 | – | 2.41e7 | 2.45e7 | inactive |
| Pmm2 (Phosphomannomutase type 2) | 1 | 2.26e7 | 2.48e7 | – | 1.24e7 | 1.22e7 | inactive |
| mRpS18C (mitochondrial ribosomal protein S18C) | 1 | 3.29e7 | 4.73e7 | – | 1.68e7 | 1.93e7 | inactive |
| Pkcdelta (Protein kinase C delta) | 1 | 4.55e7 | 4.99e7 | – | 2.18e7 | 2.41e7 | inactive |
| Pkcdelta (Protein kinase C delta) | 2 | 4.31e7 | 5.46e7 | – | 2.00e7 | 2.57e7 | inactive |
| CG30270 | 1 | 4.24e7 | 3.35e7 | – | 2.53e7 | 1.61e7 | inactive |
| Dlip1 (Dorsal interacting protein 1) | 1 | 2.04e7 | 2.55e7 | – | 1.12e7 | 1.27e7 | inactive |
| CG9806 | 1 | 3.27e7 | 4.02e7 | – | 1.60e7 | 1.99e7 | inactive |
| CG4066 | 1 | 3.54e7 | 2.40e7 | – | 1.77e7 | 1.37e7 | inactive |
| nebu (nebulosa) | 1 | 3.97e7 | 2.87e7 | – | 2.95e7 | 1.60e7 | inactive |
| nebu (nebulosa) | 2 | 2.17e7 | 2.97e7 | – | 1.20e7 | 1.27e7 | inactive |
| Gr77a (Gustatory receptor 77a) | 1 | 2.71e7 | 2.47e7 | – | 1.26e7 | 1.18e7 | inactive |
| Ptp36E (Protein tyrosine phosphatase 36E) | 1 | 5.47e7 | 4.15e7 | – | 2.38e7 | 1.83e7 | inactive |
| Hrs (Hepatocyte growth factor regulated tyrosine kinase substrate) | 1 | 4.13e7 | – | – | 2.04e7 | – | inactive |
| Urod (Uroporphyrinogen decarboxylase) | 1 | 3.98e7 | 3.82e7 | – | 1.76e7 | 1.58e7 | inactive |
| CG13930 | 1 | 2.93e7 | 3.85e7 | – | 1.53e7 | 1.54e7 | inactive |
| DhpD (Dihydropterin deaminase) | 1 | 3.46e7 | 3.77e7 | – | 1.62e7 | 2.72e7 | inactive |
| GCC185 (GRIP and coiled-coil domain containing 185 kDa) | 1 | 3.80e7 | 3.29e7 | – | 1.91e7 | 1.65e7 | inactive |
| CG42284 | 1 | 3.91e7 | 8.45e7 | – | 1.80e7 | 3.80e7 | inactive |
| CG42284 | 2 | 3.48e7 | 5.86e7 | – | 1.68e7 | 2.92e7 | inactive |
| CG5746 | 1 | 3.75e7 | 2.95e7 | – | 1.84e7 | 1.40e7 | inactive |
| Bap55 (Brahma associated protein 55kD) | 1 | 3.04e7 | 2.56e7 | – | 1.88e7 | 1.75e7 | active |
| Act57B (Actin 57B) | 1 | 2.52e7 | – | – | 1.45e7 | – | inactive |
| gzl (godzilla E3 ubiquitin protein ligase) | 1 | 4.76e7 | 6.17e7 | – | 1.95e7 | 2.73e7 | inactive |
| Cyp4d14 (Cytochrome P450 4d14) | 1 | 4.03e7 | 5.75e7 | 2 | 2.04e7 | 2.57e7 | inactive |
| HipHop (HP1-HOAP-interacting protein) | 1 | 3.83e7 | 4.63e7 | – | 1.87e7 | 3.39e7 | inactive |
| ind (intermediate neuroblasts defective) | 1 | 4.26e7 | 5.46e7 | – | 2.28e7 | 2.55e7 | inactive |
| ind (intermediate neuroblasts defective) | 2 | 4.95e7 | 4.64e7 | – | 2.28e7 | 1.90e7 | inactive |
| CG11159 | 1 | 2.67e7 | 2.67e7 | – | 1.47e7 | 1.24e7 | inactive |
| CG15535 | 1 | 3.27e7 | 4.08e7 | – | 1.61e7 | 1.86e7 | inactive |
| CG31798 | 1 | 2.87e7 | 4.27e7 | – | 1.64e7 | 2.19e7 | inactive |
| CG31233 | 1 | 4.55e7 | 4.13e7 | – | 5.16e7 | 1.87e7 | inactive |
| CG18324 | 1 | 4.76e7 | 3.85e7 | – | 1.98e7 | 1.79e7 | inactive |
| Atg17 (Autophagy-related 17) | 1 | 4.42e7 | 4.12e7 | – | 2.15e7 | 1.95e7 | inactive |
| CG3735 | 1 | 2.48e7 | – | – | 1.31e7 | – | inactive |
| CG12003 | 1 | 4.18e7 | 5.08e7 | – | 2.11e7 | 2.18e7 | inactive |
| Vago | 1 | 2.95e7 | 4.34e7 | – | 1.56e7 | 1.94e7 | inactive |
| CG14711 + Zaf1 | 1 | 4.09e7 | 3.56e7 | – | 2.13e7 | 1.80e7 | inactive |
| DppIII (Dipeptidyl aminopeptidase III) | 1 | 2.79e7 | 2.63e7 | – | 1.24e7 | 1.22e7 | inactive |
| Nepl12 (Neprilysin-like 12) | 1 | 3.66e7 | 3.52e7 | – | 1.86e7 | 1.80e7 | inactive |
| Mks1 (Meckel syndrome, type 1) | 1 | 4.21e7 | 3.02e7 | – | 2.13e7 | 1.59e7 | inactive |
| Ccn | 1 | 4.42e7 | 3.81e7 | – | 2.00e7 | 1.78e7 | inactive |
| Ccn | 2 | 3.40e7 | 3.95e7 | – | 1.99e7 | 1.92e7 | inactive |
| Ccn | 3 | 3.73e7 | 4.64e7 | – | 1.82e7 | 3.11e7 | inactive |
| Ccn | 4 | 3.70e7 | 5.07e7 | – | 1.81e7 | 1.77e7 | inactive |
| DIP-theta (Dpr-interacting protein theta) | 1 | 2.72e7 | 5.20e7 | – | 1.50e7 | 2.33e7 | inactive |
| DIP-theta (Dpr-interacting protein theta) | 2 | 2.36e7 | 2.44e7 | – | 1.19e7 | 1.24e7 | inactive |
| DIP-theta (Dpr-interacting protein theta) | 3 | 2.79e7 | 2.92e7 | – | 1.70e7 | 1.51e7 | inactive |
| CG14570 | 1 | 2.98e7 | 5.19e7 | – | 1.45e7 | 2.13e7 | inactive |
| CG14455 | 1 | 2.24e7 | 3.58e7 | – | 1.11e7 | 1.45e7 | inactive |
| CG13857 | 1 | 4.11e7 | 4.76e7 | – | 5.13e7 | 2.03e7 | inactive |
| CG32069 + Blos2 | 1 | 4.25e7 | 3.27e7 | – | 2.84e7 | 1.47e7 | inactive |
| Obp83ef (Odorant-binding protein 83ef) | 1 | 5.09e7 | 3.39e7 | – | 2.44e7 | 1.69e7 | inactive |
| Dip-C (Dipeptidase C) | 1 | 3.82e7 | 4.82e7 | – | 1.65e7 | 2.02e7 | inactive |
| CG30273 | 1 | 2.86e7 | 4.67e7 | – | 1.39e7 | 2.46e7 | inactive |
| CG15877 | 1 | 3.52e7 | 4.16e7 | – | 1.86e7 | 1.82e7 | inactive |
| Lapsyn (Leucine-rich repeat activity-regulated protein at synapses) | 1 | 3.92e7 | – | – | 2.00e7 | – | inactive |

Part of the list above, limited to “resting calcium signal, replicate 1 (fluorescence units)”.
CG15535 = 1.61e7
CG31798 = 1.64e7
CG31233 = 5.16e7
